# Laboratory results taken from PMC9638930, “Structural basis of flagellar motility regulation by the MogR repressor and the GmaR antirepressor in Listeria monocytogenes” (Nucleic Acids Research, 2022).
# These are yes or no findings as the source states them, for the method shown. For some of these results: A result given as binding can be weak or reduced; the word gives no strength. For some of these results: Sequences can lack the tags named with a protein. For some of these results: Binding seen in cells or lysates may run through a third protein.
# B1: MogRD coexpressed from pETDuet-1 (domain or fragment, UniProt P0DJO8 1-162)
# chain: MPKSEIRKLLQEIKKQVDNPGNSSTTEIKKMASEAGIDEQTAEEIYHLLTEFYQAVEEHGGIEKYMHSNISWLKIELELLSACYQIAILEDMKVLDISEMLSLNDLRIFPKTPSQLQNTYYKLKKELIQVEDIPKNKPGRKRKTQKNTKKEKTNIFGKVVPA
# B2: MogRD fused with the T25 fragment of adenylate cyclase (domain or fragment, UniProt P0DJO8 1-162)
# chain: B1 chain
# B3: MogR DBD protein (MogRD; residues 1–162) (domain or fragment, UniProt P0DJO8 1-162)
# chain: B1 chain
# How the values were obtained:
# [1] = target: T1, MogR DBD protein (MogRD; residues 1–162) (Listeria monocytogenes) (UniProt P0DJO8); test: ELISA; wells coated with MogR protein (20 nM); three-fold serially diluted His6-tagged GmaRFL, 2 h at 18°C; detected with anti-His6 antibody; both purified
# T1 sequence: B1 chain
# [2] = target: His6-tagged GmaRFL coexpressed from pETDuet-1 (Listeria monocytogenes); test: pull-down; MogR and His6-tagged GmaRFL coexpressed in E. coli BL21 (DE3) from pETDuet-1; Ni-NTA in 50 mM Tris pH 8.0, 100 mM NaCl, 5 mM βME; SDS-PAGE, Coomassie
# [3] = target: GmaRFL fused with the T18 fragment of adenylate cyclase (Listeria monocytogenes); test: two-hybrid; bacterial adenylate cyclase-based two-hybrid in E. coli BTH101, GmaR-T18 and MogR-T25, cells cultured at 30°C, β-galactosidase activity
# [4] = target: GmaRFL^E293A fused with the T18 fragment of adenylate cyclase (Listeria monocytogenes); test: as above
# [5] = target: N-terminally truncated GmaR protein (GmaR_(231-637); residues 231–637) (Listeria monocytogenes); test: crystal structure; GmaR_(231-637)–MogRD complex, crystals grown at 18°C, molecular replacement; both purified
# [6] = target: full-length GmaR (GmaRFL; residues 1–637) (Listeria monocytogenes); test: condition: only GmaRFL pretreated at 37°C for 15 min; native gel or EMSA; native PAGE; GmaRFL pretreated at 37°C for 15 min, then incubated with MogRD at 18°C; both purified
# [7] = target: His6-tagged GmaR_(141-637)^H286C/R589C (Listeria monocytogenes); test: native gel or EMSA; native PAGE; GmaR_(141-637)^H286C/R589C pretreated at different temperatures, then incubated with MogRD at 18°C, βME-free interaction solution; both purified
# [8] = target: full-length GmaR (GmaRFL; residues 1–637) (Listeria monocytogenes); test: condition: only GmaRFL preincubated at 37°C for 15 min; SEC; GmaRFL (192 μg) preincubated at 37°C for 15 min, then incubated with MogRD (50 μg) at a 1:1 molar ratio at 18°C for 30 min; Superdex 200 10/300 at room temperature; fractions by SDS-PAGE; both purified
# [9] = target: full-length GmaR (GmaRFL; residues 1–637) (Listeria monocytogenes); test: native gel or EMSA; native PAGE; GmaR pretreated at 4 or 30°C for 15 min, then incubated with MogRD at 18°C; both purified
# [10] = target: GmaRFL^E293A (Listeria monocytogenes); test: as above
molecule,measurement,setting,value
His6-tagged GmaRFL protein (Listeria monocytogenes),binding,[1],binds
B1,binding,[2],binds
B2,binding,[3],binds
same,binding,[4],binds
B3,binding,[5],binds
same,binding,[6],no binding
same,binding,[7],binds
same,binding,[8],no binding
same,binding,[9],binds
same,binding,[10],binds
